No constants are given. Whether binding was seen depends on the method and setting. In cells and extracts the contact can be indirect. Some results given as binding are weak or reduced against the parent protein; the word gives no strength. Sequences can lack the tags named with a protein.
Molecular target: T1, ZRT/IRT-like protein 14 (ZIP14), endogenously FLAG-tagged (human (endogenous in HepG2)) (UniProt Q15043)
T1 sequence: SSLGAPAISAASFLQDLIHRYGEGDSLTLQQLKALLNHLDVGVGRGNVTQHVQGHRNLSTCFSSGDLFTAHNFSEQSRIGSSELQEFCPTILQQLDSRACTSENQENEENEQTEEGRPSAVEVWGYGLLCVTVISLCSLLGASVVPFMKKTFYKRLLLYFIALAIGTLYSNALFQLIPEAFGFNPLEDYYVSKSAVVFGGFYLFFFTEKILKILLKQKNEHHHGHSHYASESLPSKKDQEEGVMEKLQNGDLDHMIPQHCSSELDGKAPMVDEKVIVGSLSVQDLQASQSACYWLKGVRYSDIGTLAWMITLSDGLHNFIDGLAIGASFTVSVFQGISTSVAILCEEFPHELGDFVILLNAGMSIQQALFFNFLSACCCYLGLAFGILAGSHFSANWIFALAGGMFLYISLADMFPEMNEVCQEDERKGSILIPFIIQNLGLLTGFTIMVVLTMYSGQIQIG
Test: co-IP; post-nuclear supernatant of HepG2-ZIP14-FLAG cells in NETT buffer (150 mM NaCl, 5 mM EDTA, 10 mM Tris, 1% Triton X-100, pH 7.4) incubated with anti-FLAG (M2) agarose beads 1 h at 4 °C; eluted with 0.5 mg/mL triple FLAG peptide; blot for p53; cells treated with negative control or p53-targeting siRNA for 48 h

For “tumor suppressor p53 (from UniProt P04637 1-393)”, the binding was “binds”.

Source: publication PMC5748785
